Results as given in article PMC9273956.
For at least one entry, the source does not settle the construct or the ends of the probe.

System: BcHSFA4A
Test: EMSA
Conditions: Chemiluminescent EMSA kit (Beyotime GS009), 4 ug protein, 50 nM biotin probe, 6% native gel, pH and temperature not stated, recombinant protein, protein details: GST (pGEX-4T-1, N-terminal), label: biotin (cold version unlabeled)
[1] = with BcWRKY33A-GST, binding signal unchanged vs GST

AGACGCTTCTGGAACTTCAAACTGAAAAATTATCAGACCGAACTGTTCACTCT (double strand) [HSP probe (BcHSP17.6A promoter, HSE1 and HSE2)]
binding result: binds | binding result [1]: binds

CTTCTAAGAATCTTCTAAGAATCTTCTAAGAAT (double strand) [HSE3 probe (BcZAT12 promoter HSE motif 3, three copies)]
binding result: binds | binding result [1]: binds
